# Results as given in paper PMC7260190.
# Results are given in words; binding and its absence hold for the method and conditions named. Some binding calls cover weakened binding; strength is not graded here.
# T1: NLG-1 intracellular domain [aa. 710-798], two-hybrid bait (Caenorhabditis elegans) (UniProt Q9XTG1)
# T1 sequence: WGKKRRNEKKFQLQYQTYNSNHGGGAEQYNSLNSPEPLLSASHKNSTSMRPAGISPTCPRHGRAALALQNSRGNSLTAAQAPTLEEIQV
# B1: LIN-2B full length [aa. 1-620], two-hybrid prey (protein, UniProt P54936-2 1-620)
# chain: MSSAATPPPMEHTSSEDSTTAPLQTPSSSSCLDVTVAVGTSVSYLKASPLVSSPTSLVVDITESSSTLLYDKIKALPCEPVVTEVDTSTLRKETLNQIDGLLGPSPEALELRQLLNSPHLASCVQALDVVVCEIRDPKNEASGSGDKEGNCVSSDPAPAYLNGGVLPLGAQRAGTSFEHFNQSAVHTSYDEEEEELYDCMSRLRLVQFQKDTQEPMGITLKVNEDGRCFVARIMHGGMIHRQATLHVGDEIREINGMSVANRSVESLQEMLRDARGQVTFKIIPSYRSAPPACEIFVRAQFDYEPSQDDLIPCPQAGIPFKTGDILQVISKDDHNWWQARFVSSFPSIGNSSNAQRSNQQQVAGLIPSPELQEWRTACLAMERSKNTCNTHCMWFNKKKKYYTTKYLQKHSALFDQLDLVTYEEVMRLSQYRRKTLVLLGAHGVGRRHIKNTLIHRHPNRFAYPIPHTTRPPRKDEVDGKHYYFVTNEQMMADIQNNEYLEYGTHEESMYGTKLETIRNIHKSGKIAILDVEPQALKVLRTAEYSPFVVFIAAPNLQGMQDPDGSLEKLLNESDVLRQAFGHLFDFIITNSDIDDTIAQLERLVEKLPAYPQWLPVTWVY
# Target: T1, NLG-1 intracellular domain [aa. 710-798], two-hybrid bait (Caenorhabditis elegans)
# Experiment: two-hybrid; Hybrigenics; NLG-1 fragment as bait, LIN-2B as prey; HIS3 reporter, growth on DO-3 medium without tryptophan, leucine and histidine; three independent yeast clones
binder,measurement,value
B1,binding,binds
